# Experimental data reported in PubChem BioAssay AID1508600 (Functional Genomics Laboratory (NCATS/FGL), 2020).
# In all, about 53,000 sequences went through this assay and about 3,700 (7%) were called active.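 Rule for the calls: active = gene knockdowns whose robust z-score for IL-1 alpha signal is at least 2 or at most -2, so actives lie on both sides; inactive = the rest.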 This is one part of the list.
# Test: Components of the Cytosolic LPS Sensing Pathway: Gene Identification via Genome-wide siRNA Screen;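 note: robust z of the log signal after scaling to non-targeting control siRNA wells of the plate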
# Conditions: RAW264.7 macrophages, IL-1a HTRF, actives lie on both sides, screened at 100 nM (by protocol), cells primed 5 h with Pam3CSK4 first
# How it was run: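 Using IL-1a HTRF as read-out, the screen measured release from RAW264.7 cells after 48h siRNA knockdown (100 nM), 5 h Pam3CSK4 priming and 24 h cytosolic LipidA. Values were expressed relative to negative-control wells as robust z-scores.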
row,Sequence,z-score
1,GGUGAAUCAGCGUAAUGUATT against Nrbp1,inactive: -1.37
2,GGCAGUCCUUCCUCCAAAGTT against Tmem69,inactive: -0.821
3,GCACUAAAUCCUUUGAUAUTT against Olfr307,inactive: 1.08
4,CCUGGCAGUAAAAGAUUGCTT against Ndst3,inactive: 0.836
5,GGCUGUAGAAGGCUUAUUATT against Cnot1,inactive: -0.786
6,CCGAGUUUGGGAAUAACUUTT against Cacna1a,inactive: 1.45
7,GGAGAGCUCUUUACCUAAUTT against Gykl1,inactive: 0.206
8,CCAUCUUGACACCCAAACUTT against Olfr170,active: -3.09
9,CCUACAUCACACCUUGAUATT against Olfr1309,inactive: -0.587
10,CCCUAACUGAGGAAGGAGGTT against Zfp384,inactive: 0.455
11,GGCCAGGAUUAUAAGUUUUTT against AI504432,inactive: 1.61
12,CGGAAUCAAACUUUUCGGGTT against Rbm7,inactive: -0.487
13,CCCACCGAGACACCAUCUUTT against Syne4,inactive: -1.78
14,GGAUGCCUUUGAUGAUGUGTT against Fmnl2,inactive: -0.332
15,GGAGAAAUAUGAUGUUCUUTT against Mppe1,inactive: 0.819
16,GGUAUUCAAUAUGGUGAAGTT against Zfp932,inactive: -1.02
17,GGGCUGCAUUAUUUGAAUUTT against Tmcc2,inactive: 1.38
18,GCUCAGUGAUAAUUAAACGTT against Nudt10,inactive: -0.596
19,CCCACUAAGGAACAAAUUGTT against Tex24,inactive: 0.297
20,GCCCUGAUGCAAGCUUGUGTT against Gprin3,inactive: 0.193
21,CCUUAGGGAGAUAAGCUUUTT against Olfr603,inactive: 0.095
22,GGCCCUAAAUUAUACCAGCTT against Bhlha15,inactive: 0.653
23,GCUAACCAAGCUUGUGACATT against Adat1,inactive: -1.11

row,Sequence,z-score
1,CCUCAUUCAGAGUAUAUAGTT against Vwa3a,inactive: -0.469
2,GGAUUUGCUUCAACAUAGGTT against Ncf2,inactive: 0.0888
3,CCUUGUAGGAAAAAAGUCCTT against Zfp109,inactive: 1.62
4,GGAGGUAGAAAUAAAUACUTT against Sva,active: 2.01
5,GGAGCAUUGCCUUUUAAAGTT against Psph,inactive: -0.474
6,CCUGGAUACCUUCAACUAUTT against Galnt14,inactive: -0.209
7,GGCGGUGAAGACAUUGAAATT against Stxbp2,inactive: 1.05
8,CCUCAUUGAGUUUUGAAGATT against Dtd2,inactive: -0.329
9,GCGAGUUGCUCUACGUCAUTT against Npvf,inactive: 0.414
10,GGGACUUUCCAGUGUAAAGTT against Npb,inactive: -0.646
11,GGACAAUUGUAAGGACAGATT against Slc1a6,inactive: 0.43
12,GGUCUUUGAUGUUUUCACCTT against Togaram2,inactive: 1.22
13,CCAAUCAACCCUCUAAGCATT against Nphp4,inactive: 0.576
14,GGACAAGUACGGAAAGCCCTT against Hdgfl2,inactive: 0.196
15,GGAUAUCCGAGGUGCUGUATT against Aldh16a1,inactive: -0.735
16,GCAUAGAAAGCAUAGGUCCTT against Mrgprx1,inactive: -0.683
17,CCAGGAUGAAAGGUCACACTT against Arhgef38,inactive: -0.812
18,GCCGUCUAAGUAUCAGAAATT against Abca14,inactive: 0.714
19,GGAAAAUGUUGAAGUGGAATT against Ndufa5,inactive: -0.805
20,GGUCUCUGUCUCCAAGAAATT against Fam53c,inactive: -1.69
21,GGUCUAGGAAACCUUCAGCTT against Pdzk1ip1,inactive: -0.325
22,GGUAUAGCCACAGGUACAUTT against Phxr5,inactive: -0.368
23,GGAAAUUUUUCGUAAGUUGTT against Ncor1,inactive: 0.0545

row,Sequence,z-score
1,GGAGCUAUAUUCUCACCCATT against Ptpn1,active: -2.06
2,CCCUAUUAAGAUGUCUACGTT against Rwdd2a,inactive: 0.0237
3,CCGCAUUCCAGAGGAUAACTT against Mgst1,inactive: -0.978
4,GGCUGAUGGAAAUCCUUAATT against Ctif,inactive: 0.0158
5,GGAUGUCUUUUUAAGGUUUTT against Eid1,inactive: 0.987
6,GGCUUAAUAUAUCUUGUUCTT against Gja6,inactive: -0.0335
7,GCUACUUUACUACCAGGCCTT against Slc35e3,inactive: -1.56
8,GGUUCUACUUCAGCUGCCUTT against Acer1,inactive: -0.568
9,CCUCAUUAGCAACCAAAAGTT against Sptbn4,inactive: -0.544
10,GGCUUGCAUAUCUAUUGGATT against Map2k6,active: 2.61
11,GGAAUGUGUUAUGGUGAUUTT against Mgl2,inactive: -1.56
12,GGACAGUGAUGAAGAUAUGTT against Nop2,inactive: -0.826
13,GCCUGAAAUCAACUCCACCTT against F2,active: 2.21
14,GCAACUCAUGGUCAAUAUGTT against Ppfia2,inactive: 0.808
15,GGAUUUUCAAAGAGGACACTT against Cdca7l,inactive: 0.735
16,GGAAGGGUAUAGCCAGUACTT against Thoc7,inactive: 1.71
17,GCAGUAUAUACCCACUCGGTT against Stk17b,inactive: -0.249
18,GGUUGUGUAAUGAGACUGATT against Olfr914,inactive: 0.947
19,GGAGCACAUGCUCAAAAGATT against Pccb,inactive: -0.613
20,GGUGUGUGGUAGAAGACAATT against Lsamp,inactive: 0.972
21,CGUGACCAACAUGAUACUUTT against Farsa,inactive: -0.00218
22,GGCAGUGGGAUUACAAUGATT against Med12,active: 2.02

# Part of the list above, as tab-separated lines.
row	Sequence	z-score
4	GGCUGAUGGAAAUCCUUAATT against Ctif	inactive: 0.0158
5	GGAUGUCUUUUUAAGGUUUTT against Eid1	inactive: 0.987
6	GGCUUAAUAUAUCUUGUUCTT against Gja6	inactive: -0.0335
7	GCUACUUUACUACCAGGCCTT against Slc35e3	inactive: -1.56
8	GGUUCUACUUCAGCUGCCUTT against Acer1	inactive: -0.568
9	CCUCAUUAGCAACCAAAAGTT against Sptbn4	inactive: -0.544
10	GGCUUGCAUAUCUAUUGGATT against Map2k6	active: 2.61
11	GGAAUGUGUUAUGGUGAUUTT against Mgl2	inactive: -1.56
12	GGACAGUGAUGAAGAUAUGTT against Nop2	inactive: -0.826
13	GCCUGAAAUCAACUCCACCTT against F2	active: 2.21
14	GCAACUCAUGGUCAAUAUGTT against Ppfia2	inactive: 0.808
15	GGAUUUUCAAAGAGGACACTT against Cdca7l	inactive: 0.735
16	GGAAGGGUAUAGCCAGUACTT against Thoc7	inactive: 1.71
17	GCAGUAUAUACCCACUCGGTT against Stk17b	inactive: -0.249
18	GGUUGUGUAAUGAGACUGATT against Olfr914	inactive: 0.947
19	GGAGCACAUGCUCAAAAGATT against Pccb	inactive: -0.613
20	GGUGUGUGGUAGAAGACAATT against Lsamp	inactive: 0.972
21	CGUGACCAACAUGAUACUUTT against Farsa	inactive: -0.00218
